Consider 8 substances from patent publication US20100093612A1 (priority 2007, published 2010).

A short description of the data set: general procedure: Fmoc solid-phase peptide synthesis; 2-chlorotrityl chloride polystyrene resin (Fluka, 100-300 mesh, calculated loading 1.55-[…]); TBTU/HOBt/DIEA; cyclisation with DPPA/NaHCO3 or HATU/HOAt/collidine. The conditions noted are these: hydrochloride salt; for cyclisation yield: cyclisation step.

In the case of c[-Arg-Gly-Asp-AMPRO1-], the cyclisation yield was 95% (run 1) and 75% (run 2). The “final HPLC purity” value (whole synthesis, analytical RP-HPLC in two solvent systems) is “≧98%”. Further, where the note is “whole synthesis, overall”, the crude yield is 35%.
As to c[-Arg-Gly-Asp-AMPRO2-], the “final HPLC purity” value (whole synthesis, 254 nm) is “≧98%”.
Consider c[-Arg-Gly-Asp-AMPRO3-], for which, under “whole synthesis, 254 nm”, the “final HPLC purity” value is recorded as “≧98%”.
As for c[-Arg-Gly-Asp-AMPRO5-], the “final HPLC purity” value (whole synthesis, 254 nm) is “≧98%”.
On to c[-Arg-Gly-Asp-AMPRO9-], for which the “final HPLC purity” value (whole synthesis, 220 nm) is 98%.
As for c[-Arg-Gly-Asp-AMPRO11-], the “final HPLC purity” value (whole synthesis, 220 nm) was “≧98%”.
On to c[-Arg-Gly-Asp-AMPRO15-], for which, under “whole synthesis, 220 nm”, the “final HPLC purity” value is reported as “≧98%”.
Turning to c[Arg-Gly-Asp-AMPRO4-], the “final HPLC purity” value (whole synthesis, 254 nm) is recorded as “≧98%”.
